According to publication PMC3676356:
Residue numbers refer to the chain shown, from its start. Names and notes keep the numbering of the source. No constants are given. Whether binding was seen depends on the method and setting. Some results given as binding are weak or reduced against the parent protein; the word gives no strength.

How the values were obtained:
Assay in all cases: SEC; protein extracts of 7-d.o. seedlings (600 µg total protein) fractionated on Superdex 200 10/300 GL at 4°C in 50 mM Tris-HCl pH 7.5, 150 mM NaCl, 1 mM EDTA, 10% glycerol, 10 mM MgCl2, 1 mM DTT; 0.5 mL fractions immunoblotted with antibodies against CSN subunits
[1] = biological target: T1, COP9 signalosome subunit 4 (CSN4) (Arabidopsis thaliana (endogenous in Col-0 and csn3-3 seedlings)) (UniProt Q8L5U0)
T1 sequence: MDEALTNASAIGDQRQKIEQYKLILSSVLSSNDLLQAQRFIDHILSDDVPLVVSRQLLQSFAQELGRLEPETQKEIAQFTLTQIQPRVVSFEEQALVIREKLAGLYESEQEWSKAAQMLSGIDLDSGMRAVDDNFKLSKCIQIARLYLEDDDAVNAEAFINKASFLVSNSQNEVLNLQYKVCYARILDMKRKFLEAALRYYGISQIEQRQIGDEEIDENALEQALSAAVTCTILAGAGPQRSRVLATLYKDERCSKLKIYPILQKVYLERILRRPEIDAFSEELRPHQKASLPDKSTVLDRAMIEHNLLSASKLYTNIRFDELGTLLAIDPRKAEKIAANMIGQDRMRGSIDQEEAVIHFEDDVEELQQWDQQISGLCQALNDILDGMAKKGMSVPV

[2] = biological target: T2, COP9 signalosome subunit 1 (CSN1) (Arabidopsis thaliana (endogenous in Col-0 and csn3-3 seedlings)) (UniProt P45432)
T2 sequence: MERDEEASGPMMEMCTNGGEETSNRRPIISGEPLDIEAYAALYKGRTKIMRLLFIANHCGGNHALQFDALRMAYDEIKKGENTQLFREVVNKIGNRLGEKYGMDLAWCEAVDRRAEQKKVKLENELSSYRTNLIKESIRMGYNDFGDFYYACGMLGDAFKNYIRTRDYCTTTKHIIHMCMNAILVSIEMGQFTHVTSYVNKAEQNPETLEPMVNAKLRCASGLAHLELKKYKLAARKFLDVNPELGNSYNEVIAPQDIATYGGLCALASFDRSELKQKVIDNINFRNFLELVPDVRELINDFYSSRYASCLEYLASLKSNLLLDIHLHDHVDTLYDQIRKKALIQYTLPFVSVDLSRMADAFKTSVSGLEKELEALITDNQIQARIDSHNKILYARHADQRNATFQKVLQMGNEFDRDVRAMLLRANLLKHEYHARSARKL

[3] = biological target: T3, COP9 signalosome subunit 8 (CSN8) (Arabidopsis thaliana (endogenous in Col-0 and csn3-3 seedlings)) (UniProt P43255)
T3 sequence: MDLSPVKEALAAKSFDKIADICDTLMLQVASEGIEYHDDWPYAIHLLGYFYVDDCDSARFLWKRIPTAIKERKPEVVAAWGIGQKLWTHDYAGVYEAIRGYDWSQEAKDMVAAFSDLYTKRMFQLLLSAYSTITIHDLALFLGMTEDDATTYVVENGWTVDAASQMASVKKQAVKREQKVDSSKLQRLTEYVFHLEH

Measured: binding

B1: COP9 signalosome subunit 3 (CSN3) (protein, UniProt Q8W575 1-429)
chain: MIGAVNSVEAVITSIQGLSGSPEDLSALHDLLRGAQDSLRAEPGVNFSTLDQLDASKHSLGYLYFLEVLTCGPVSKEKAAYEIPIIARFINSCDAGQIRLASYKFVSLCKILKDHVIALGDPLRGVGPLLNAVQKLQVSSKRLTALHPDVLQLCLQAKSYKSGFSILSDDIVEIDQPRDFFLYSYYGGMICIGLKRFQKALELLYNVVTAPMHQVNAIALEAYKKYILVSLIHNGQFTNTLPKCASTAAQRSFKNYTGPYIELGNCYNDGKIGELEALVVARNAEFEEDKNLGLVKQAVSSLYKRNILRLTQKYLTLSLQDIANMVQLGNAKEAEMHVLQMIQDGQIHALINQKDGMVRFLEDPEQYKSSEMIEIMDSVIQRTIGLSKNLLAMDESLSCDPLYLGKVGRERQRYDFGDDFDTVPQKFSM
binds: [1] | [2] | [3]

B2: csn3-3 mutant protein (CSN3 G293E) (protein, UniProt Q8W575 1-429)
chain: B1 chain with G293E
binds: [1] | [2] | [3]
